The record followed here is US20020102245.

Negatives hold for the conditions tested.

This data set has as its target p53 (wild-type) (UniProt P04637). Briefly: activity in cells. The settings on record: protein in cells, protein details: expressed from pCEP4 in SW480 cells, only the site is given.

With “CCTGTAGAATTATCCCAGAAATTTCCCTACTCCGTAC / GGAGTAGGGAAATTTCTGGGATAATTCTACAGGGTAC [BDS-2* (altered at critical p53-binding residues)]”, the “activity on this sequence” value (p53-dependent activation completely abrogated, SW480 luciferase reporter) is listed as “not active”.

As for “CCTGTAGCATTAGCCCAGACATGTCCCTACTCCGTAC / GGAGTAGGGACATGTCTGGGCTAATGCTACAGGGTAC [BDS-2 (14-3-3sigma p53 site, 37 bp, multimerized)]”, the “activity on this sequence” value (luciferase reporter with minimal E1B promoter, SW480, 2-3 copies gave more activation than 13 consensus copies of PG13-luc) is on record as “active”.
